Assay results from patent US6936584B1, “Mixed amylin activity compounds” (Amylin Pharmaceuticals, Inc., priority 1998, dated 2005).
No constants are given. Whether binding was seen depends on the method and setting. Some binding calls cover weakened binding; strength is not graded here.

Target: T1, human calcitonin receptors (T47D and MCF7-7 breast carcinoma cells) (human) (UniProt P30988)
T1 sequence (looked up): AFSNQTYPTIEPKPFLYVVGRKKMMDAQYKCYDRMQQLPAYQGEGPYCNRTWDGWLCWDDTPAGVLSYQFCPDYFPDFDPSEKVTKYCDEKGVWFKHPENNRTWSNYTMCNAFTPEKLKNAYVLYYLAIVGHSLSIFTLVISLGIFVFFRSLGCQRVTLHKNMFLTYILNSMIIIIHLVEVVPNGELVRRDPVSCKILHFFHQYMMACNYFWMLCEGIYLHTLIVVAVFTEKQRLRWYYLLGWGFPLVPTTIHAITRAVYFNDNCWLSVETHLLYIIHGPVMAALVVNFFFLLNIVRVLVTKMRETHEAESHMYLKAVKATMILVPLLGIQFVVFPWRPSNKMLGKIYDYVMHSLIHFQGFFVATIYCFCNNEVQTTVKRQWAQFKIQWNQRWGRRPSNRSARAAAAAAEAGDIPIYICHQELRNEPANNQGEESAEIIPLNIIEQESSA
Test: radioligand competition, T47D cell membranes

binding: binds
Binder: LSTCVLGRLSQELHRLQTYPRTNTGSNTY (Synthetic 29-residue peptide) [Compound 1]
